The exact form of at least one protein or probe is not confirmed. At least one verdict was read from the data and is not stated in words by the source. Where a protein sequence is shown, tags need not be part of it.
target: T1, SOX9 (Homo sapiens) (UniProt P48436); experiment: EMSA; conditions: 0, 20 or 40 ng SOX9, binds as dimer; pH and temperature not given; recombinant protein; label: 32P-dCTP Klenow fill-in
T1 sequence (looked up, limits assumed): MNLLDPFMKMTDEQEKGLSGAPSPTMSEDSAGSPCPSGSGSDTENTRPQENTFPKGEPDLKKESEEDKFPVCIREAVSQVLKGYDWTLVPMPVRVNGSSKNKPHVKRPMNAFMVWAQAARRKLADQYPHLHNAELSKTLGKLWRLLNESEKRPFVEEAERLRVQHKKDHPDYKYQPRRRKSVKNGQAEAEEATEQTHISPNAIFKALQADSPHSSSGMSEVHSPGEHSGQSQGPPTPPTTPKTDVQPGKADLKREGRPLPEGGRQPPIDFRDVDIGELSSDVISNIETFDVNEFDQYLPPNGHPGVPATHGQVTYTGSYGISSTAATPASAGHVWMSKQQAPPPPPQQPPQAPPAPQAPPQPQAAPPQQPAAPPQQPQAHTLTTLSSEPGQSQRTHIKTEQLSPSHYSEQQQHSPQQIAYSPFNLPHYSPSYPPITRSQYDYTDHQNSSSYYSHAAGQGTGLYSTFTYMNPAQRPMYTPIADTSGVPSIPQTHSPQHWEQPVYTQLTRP

Binding result, binds:
GGCAGATAGCTGAAGGCCTTCTTTACAGAAACCCAG (double strand) [Col2a1 intron 6 (rat)]

same assay, conditions: 0, 20 or 40 ng SOX9; pH and temperature not given; recombinant protein; label: 32P-dCTP Klenow fill-in

Binding result, binds:
GGTTATGAGGATAAAGGAGCCTTGATGGGAAAAAGT (double strand) [Sox5 (rat)]
GGGATGCCCGCTAACGGCTCACTTTTAATGTTTCCT (double strand) [Prelp (rat)]
GGGTCTGGGAACAAGGCAGTTCTTTGATTTGTGGTG (double strand) [Cdrap (rat)]
GGCCCTCCCGACAAAGCACGCCTTGTATCCCCCACC (double strand) [Col11a2 (rat)]
GGCGCTTGAGAAAAGCCCCATTCATGAGAGG (double strand) [Col2a1 intron 1 (mouse)]
GGGGGGGACAACAAAGAGAGCATTGTATCACACTCT (double strand) [Col1a1 (rat)]
GGTGGATCAAACCAAAGCAGCCTTCTCCTCCCTCAA (double strand) [Syndecan-3 (rat)]
GGATTTTGCCTGAAAGAACCCTTTAACAAGCAATGA (double strand) [Col11a1 (rat)]
GGCACTCGAGAAAAGCCCCATTCATGAGAGG (double strand) [Col2a1 intron 1 (rat)]
GGCTGAGACAGGAATGAATCACTTTCCTGGGGGTGG (double strand) [Matrilin4 (rat)]
